# Test results from the supplement of paper PMC12819154, “High-throughput peptide-centric local stability assay extends protein–ligand identification to membrane proteins, tissues and bacteria” (Nature Structural & Molecular Biology, 2025).
# Protein sequences, listed by entry. Tags and fused reporters are not part of them. Lines headed by an entry give the natural chain unless they say otherwise; changes in a name come on top.
# UniProt Q99PU8: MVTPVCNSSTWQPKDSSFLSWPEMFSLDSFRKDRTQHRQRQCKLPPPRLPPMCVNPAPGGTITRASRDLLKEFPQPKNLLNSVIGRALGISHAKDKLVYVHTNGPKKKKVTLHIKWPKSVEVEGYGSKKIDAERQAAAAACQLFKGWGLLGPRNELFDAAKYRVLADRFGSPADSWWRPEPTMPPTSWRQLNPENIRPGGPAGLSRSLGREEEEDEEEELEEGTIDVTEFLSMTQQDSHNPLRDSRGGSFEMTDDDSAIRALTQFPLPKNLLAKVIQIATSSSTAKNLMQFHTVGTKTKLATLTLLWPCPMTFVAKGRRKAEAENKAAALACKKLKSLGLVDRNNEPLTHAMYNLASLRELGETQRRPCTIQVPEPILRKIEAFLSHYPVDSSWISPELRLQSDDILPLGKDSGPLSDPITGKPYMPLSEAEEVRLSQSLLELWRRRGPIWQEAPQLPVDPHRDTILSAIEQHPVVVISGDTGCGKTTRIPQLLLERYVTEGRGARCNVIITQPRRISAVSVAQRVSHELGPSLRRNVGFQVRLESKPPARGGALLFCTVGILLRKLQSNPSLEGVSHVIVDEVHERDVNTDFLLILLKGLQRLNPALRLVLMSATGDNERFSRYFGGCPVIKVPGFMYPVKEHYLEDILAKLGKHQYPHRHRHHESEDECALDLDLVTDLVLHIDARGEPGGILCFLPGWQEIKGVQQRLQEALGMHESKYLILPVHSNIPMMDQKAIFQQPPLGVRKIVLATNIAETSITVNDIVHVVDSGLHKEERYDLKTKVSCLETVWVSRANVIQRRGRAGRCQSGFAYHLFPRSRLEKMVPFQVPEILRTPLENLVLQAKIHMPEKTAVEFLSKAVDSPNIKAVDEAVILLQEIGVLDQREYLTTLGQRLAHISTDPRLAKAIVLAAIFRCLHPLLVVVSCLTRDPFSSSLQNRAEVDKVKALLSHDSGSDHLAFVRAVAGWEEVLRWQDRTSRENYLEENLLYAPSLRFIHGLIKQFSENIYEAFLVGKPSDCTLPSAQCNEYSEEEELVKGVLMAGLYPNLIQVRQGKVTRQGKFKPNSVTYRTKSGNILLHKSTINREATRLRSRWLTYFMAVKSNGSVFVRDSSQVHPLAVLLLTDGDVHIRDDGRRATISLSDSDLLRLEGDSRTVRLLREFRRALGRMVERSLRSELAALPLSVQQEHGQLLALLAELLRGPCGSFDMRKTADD
# UniProt Q9CR51, whole entry: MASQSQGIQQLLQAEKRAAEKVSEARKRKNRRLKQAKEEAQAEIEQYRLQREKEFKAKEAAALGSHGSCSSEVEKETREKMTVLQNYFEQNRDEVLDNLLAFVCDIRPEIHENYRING
# UniProt Q9CQJ7: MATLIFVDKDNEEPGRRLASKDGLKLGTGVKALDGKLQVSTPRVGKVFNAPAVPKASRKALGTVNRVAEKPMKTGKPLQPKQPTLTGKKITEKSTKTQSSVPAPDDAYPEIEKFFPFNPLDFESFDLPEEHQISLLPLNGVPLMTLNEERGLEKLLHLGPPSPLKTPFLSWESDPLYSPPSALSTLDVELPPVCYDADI
# UniProt Q99PU7: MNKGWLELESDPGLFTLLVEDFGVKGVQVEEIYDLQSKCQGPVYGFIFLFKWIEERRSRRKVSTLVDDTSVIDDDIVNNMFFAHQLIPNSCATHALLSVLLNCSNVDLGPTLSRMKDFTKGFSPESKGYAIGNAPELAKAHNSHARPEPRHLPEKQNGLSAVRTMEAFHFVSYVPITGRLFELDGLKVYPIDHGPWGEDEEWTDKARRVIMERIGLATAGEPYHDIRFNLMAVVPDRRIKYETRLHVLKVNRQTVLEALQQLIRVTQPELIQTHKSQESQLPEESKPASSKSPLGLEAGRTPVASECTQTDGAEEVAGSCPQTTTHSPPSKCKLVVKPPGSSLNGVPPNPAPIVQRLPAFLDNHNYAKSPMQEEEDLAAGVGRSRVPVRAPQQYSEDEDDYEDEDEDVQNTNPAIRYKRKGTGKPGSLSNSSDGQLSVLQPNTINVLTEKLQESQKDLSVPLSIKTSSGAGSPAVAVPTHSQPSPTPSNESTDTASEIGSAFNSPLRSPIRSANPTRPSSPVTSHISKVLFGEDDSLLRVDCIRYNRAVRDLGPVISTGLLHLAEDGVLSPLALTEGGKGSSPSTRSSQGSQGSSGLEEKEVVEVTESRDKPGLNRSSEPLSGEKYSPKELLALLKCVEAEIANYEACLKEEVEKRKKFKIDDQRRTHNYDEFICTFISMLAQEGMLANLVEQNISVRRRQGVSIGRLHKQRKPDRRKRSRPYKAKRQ
# UniProt Q9CQN3: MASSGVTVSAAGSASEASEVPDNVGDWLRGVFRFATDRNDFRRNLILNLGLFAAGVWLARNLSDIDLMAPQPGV
# The list shows a part of the results. Most values lie at the level of the controls, where differences are scatter.
# Compound: CN[C@@H]1C[C@H]2O[C@@](C)([C@@H]1OC)n1c3ccccc3c3c4c(c5c6ccccc6n2c5c31)C(=O)NC4 [staurosporine]
# Assay: log2 fold change of tryptic peptide abundance, ligand vs vehicle (limited proteolysis) (log2 ratio); higher = more trypsin-susceptible (destabilized)
# Details: ligand concentration: 20 uM; sample: mouse liver crude lysate; replicate design: treated separately
row,Target,log2 fold change
1,"UniProt Q99PU8 (peptide sequence: VSHELGPSLR, peptide start residue: 526)",0.343
2,"UniProt Q9CR51 (peptide sequence: EAAALGSHGSCSSEVEK, peptide start residue: 59)",0.202
3,"UniProt Q9CQJ7 (peptide sequence: VFNAPAVPK, peptide start residue: 47)",0.0701
4,"UniProt Q99PU7 (peptide sequence: GYAIGNAPELAK, peptide start residue: 128)",0.232
5,"UniProt Q9CQN3 (peptide sequence: FATDRNDFRR, peptide start residue: 34)",-0.0978
